# From the supplement of paper PMC8728848
# Some of the results follow.
# B1: Gs78B-bfa-542-29-542 (Bacteroides fragilis) (protein)
# chain: SEDINRNPLLPTKEDEKMDGVIYGAYLPNLEKSVIPIGTASESTEPVNRYQIGVNLAGDAWAGYMSPRDNKFNGSKNFTNYFMYENWVNYVYSFMVTDVYSPWMQIKRISQDEGTRNDEIYALAQIIKIAALHRTTDMFGPIPYSQVGKGSFKVAYDSQESVYRSFLKELEEAVQTLDDYSNKSKEVLPAFDIVYNGDVNKWMRFANSLMLRLAIRVRFADAGLAKEYAEKAVKHPAGLINSKELAAQMGKGAGLQMKNPLKVINEEYNDTRMGATIYSYLAGYNDARAAVYFVKNNGFKAVRCGIAKSGDAYNGFTRPNVHEDDPLYWMKASEVCFLKAEGALAGFDMGGSAGDFYNAGIRMSFSENGLDNSSAETYLKDSTRKPANYTDTSNGELSANAPSSITIRWENGATEEEKLERIITQKYLAIFPNGQEAWTEWRRTGYPRQIVVAENKTNSAVLIGNGYDLGGVRRLPYPRTEYEQNGENLHNAISQYLGGVDNAATKVWWDKKSK
# Assays:
# Assay in all cases: glycan array binding signal (z-score within array); higher = stronger binding
# Conditions in all cases: glycan notation: IUPAC condensed, linker removed
# [1] = molecular target: Fuc(a1-2)[Gal(a1-3)]Gal(b1-4)GlcNAc(b1-2)Man(a1-3)[Fuc(a1-2)[Gal(a1-3)]Gal(b1-4)GlcNAc(b1-2)Man(a1-6)]Man(b1-4)GlcNAc(b1-4)[Fuc(a1-6)]GlcNAc
# Method in brief: (§1)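 Arrays were curated from the Consortium for Functional Glycomics database, 3228 in total, and kept only where the protein sequence was available. Binding is expressed as a within-array Z-score. This score was averaged across arrays of the same protein sequence at different concentrations or buffers and across linkers, and negative values can be read as non-binding.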
# [2] = molecular target: Fuc(a1-2)[Gal(a1-3)]Gal(b1-4)GlcNAc(b1-3)GalNAc
# Method in brief: as §1
# [3] = molecular target: Fuc(a1-2)[Gal(a1-3)]Gal(b1-4)GlcNAc(b1-3)[Fuc(a1-2)[Gal(a1-3)]Gal(b1-4)GlcNAc(b1-6)]GalNAc
# Method in brief: as §1
# [4] = molecular target: Fuc(a1-2)[Gal(a1-3)]Gal(b1-4)GlcNAc(b1-6)GalNAc
# Method in brief: as §1
# [5] = molecular target: Fuc(a1-2)[Gal(a1-3)]Gal(b1-4)[Fuc(a1-3)]Glc
# Method in brief: as §1
# [6] = molecular target: Fuc(a1-2)[Gal(a1-3)]Gal(b1-4)[Fuc(a1-3)]GlcNAc
# Method in brief: as §1
# [7] = molecular target: Fuc(a1-2)[Gal(a1-3)]Gal(b1-4)[Fuc(a1-3)]GlcNAc(b1-3)GalNAc
# Method in brief: as §1
# [8] = molecular target: Fuc(a1-2)[Gal(a1-4)]Gal(b1-4)GlcNAc
# Method in brief: as §1
# [9] = molecular target: Fuc(a1-2)[GalNAc(a1-3)]Gal
# Method in brief: as §1
# [10] = molecular target: Fuc(a1-2)[GalNAc(a1-3)]Gal(b1-3)GalNAc(a1-3)[Fuc(a1-2)]Gal(b1-4)GlcNAc
# Method in brief: as §1
# [11] = molecular target: Fuc(a1-2)[GalNAc(a1-3)]Gal(b1-3)GalNAc(b1-3)Gal(a1-4)Gal(b1-4)Glc
# Method in brief: as §1
# [12] = molecular target: Fuc(a1-2)[GalNAc(a1-3)]Gal(b1-3)GlcNAc
# Method in brief: as §1
# [13] = molecular target: Fuc(a1-2)[GalNAc(a1-3)]Gal(b1-3)GlcNAc(b1-2)Man(a1-3)[Fuc(a1-2)[GalNAc(a1-3)]Gal(b1-3)GlcNAc(b1-2)Man(a1-6)]Man(b1-4)GlcNAc(b1-4)GlcNAc
# Method in brief: as §1
# [14] = molecular target: Fuc(a1-2)[GalNAc(a1-3)]Gal(b1-3)GlcNAc(b1-2)Man(a1-3)[Fuc(a1-2)[GalNAc(a1-3)]Gal(b1-3)GlcNAc(b1-2)Man(a1-6)]Man(b1-4)GlcNAc(b1-4)[Fuc(a1-6)]GlcNAc
# Method in brief: as §1
# [15] = molecular target: Fuc(a1-2)[GalNAc(a1-3)]Gal(b1-3)GlcNAc(b1-3)GalNAc
# Method in brief: as §1
# [16] = molecular target: Fuc(a1-2)[GalNAc(a1-3)]Gal(b1-3)GlcNAc(b1-6)GalNAc
# Method in brief: as §1
# [17] = molecular target: Fuc(a1-2)[GalNAc(a1-3)]Gal(b1-4)Glc
# Method in brief: as §1
# [18] = molecular target: Fuc(a1-2)[GalNAc(a1-3)]Gal(b1-4)GlcNAc
# Method in brief: as §1
# [19] = molecular target: Fuc(a1-2)[GalNAc(a1-3)]Gal(b1-4)GlcNAc(b1-2)Man
# Method in brief: as §1
# [20] = molecular target: Fuc(a1-2)[GalNAc(a1-3)]Gal(b1-4)GlcNAc(b1-2)Man(a1-3)[Fuc(a1-2)[GalNAc(a1-3)]Gal(b1-4)GlcNAc(b1-2)Man(a1-6)]Man(b1-4)GlcNAc(b1-4)GlcNAc
# Method in brief: as §1
# [21] = molecular target: Fuc(a1-2)[GalNAc(a1-3)]Gal(b1-4)GlcNAc(b1-2)Man(a1-3)[Fuc(a1-2)[GalNAc(a1-3)]Gal(b1-4)GlcNAc(b1-2)Man(a1-6)]Man(b1-4)GlcNAc(b1-4)[Fuc(a1-6)]GlcNAc
# Method in brief: as §1
# [22] = molecular target: Fuc(a1-2)[GalNAc(a1-3)]Gal(b1-4)GlcNAc(b1-3)Gal(b1-4)GlcNAc
# Method in brief: as §1
# [23] = molecular target: Fuc(a1-2)[GalNAc(a1-3)]Gal(b1-4)GlcNAc(b1-3)Gal(b1-4)GlcNAc(b1-3)Gal(b1-4)GlcNAc
# Method in brief: as §1
# [24] = molecular target: Fuc(a1-2)[GalNAc(a1-3)]Gal(b1-4)GlcNAc(b1-3)GalNAc
# Method in brief: as §1
# [25] = molecular target: Fuc(a1-2)[GalNAc(a1-3)]Gal(b1-4)GlcNAc(b1-3)[Fuc(a1-2)[GalNAc(a1-3)]Gal(b1-4)GlcNAc(b1-6)]GalNAc
# Method in brief: as §1
# [26] = molecular target: Fuc(a1-2)[GalNAc(a1-3)]Gal(b1-4)GlcNAc(b1-6)GalNAc
# Method in brief: as §1
# [27] = molecular target: Fuc(a1-2)[GalNAc(a1-3)]Gal(b1-4)[Fuc(a1-3)]GlcNAc
# Method in brief: as §1
# [28] = molecular target: Fuc(a1-2)[GalNAc(a1-3)]Gal(b1-4)[Fuc(a1-3)]GlcNAc(b1-3)GalNAc
# Method in brief: as §1
# [29] = molecular target: Fuc(a1-2)[GalNAc(a1-4)]Gal(b1-4)GlcNAc
# Method in brief: as §1
# [30] = molecular target: Fuc(a1-2)[GalNAc(b1-3)]Gal
# Method in brief: as §1
# Fuc(a1-3)GlcNAc = molecular target: Fuc(a1-3)GlcNAc
# Method in brief: as §1
# [31] = molecular target: Fuc(a1-3)[Gal(b1-4)]Glc6S
# Method in brief: as §1
# [32] = molecular target: Fuc(a1-3)[Gal(b1-4)]GlcNAc
# Method in brief: as §1
# [33] = molecular target: Fuc(a1-3)[Gal(b1-4)]GlcNAc(b1-2)Man
# Method in brief: as §1
# [34] = molecular target: Fuc(a1-3)[Gal(b1-4)]GlcNAc(b1-2)Man(a1-3)[Fuc(a1-3)[Gal(b1-4)]GlcNAc(b1-2)Man(a1-6)]Man(b1-4)GlcNAc(b1-4)GlcNAc
# Method in brief: as §1
# [35] = molecular target: Fuc(a1-3)[Gal(b1-4)]GlcNAc(b1-2)Man(a1-3)[Fuc(a1-3)[Gal(b1-4)]GlcNAc(b1-2)Man(a1-6)]Man(b1-4)GlcNAc(b1-4)[Fuc(a1-6)]GlcNAc
# Method in brief: as §1
# [36] = molecular target: Fuc(a1-3)[Gal(b1-4)]GlcNAc(b1-3)Gal(b1-3)[Fuc(a1-4)]GlcNAc
# Method in brief: as §1
binder,measurement,setting,value
B1,glycan array binding signal (z-score),[1],1.74
same,glycan array binding signal (z-score),[2],0.185
same,glycan array binding signal (z-score),[3],1.65
same,glycan array binding signal (z-score),[4],-0.852
same,glycan array binding signal (z-score),[5],-0.824
same,glycan array binding signal (z-score),[6],-0.73
same,glycan array binding signal (z-score),[7],-0.216
same,glycan array binding signal (z-score),[8],1.44
same,glycan array binding signal (z-score),[9],-0.701
same,glycan array binding signal (z-score),[10],0.134
same,glycan array binding signal (z-score),[11],-0.827
same,glycan array binding signal (z-score),[12],-0.729
same,glycan array binding signal (z-score),[13],0.203
same,glycan array binding signal (z-score),[14],-0.055
same,glycan array binding signal (z-score),[15],0.382
same,glycan array binding signal (z-score),[16],1.11
same,glycan array binding signal (z-score),[17],-0.713
same,glycan array binding signal (z-score),[18],-0.665
same,glycan array binding signal (z-score),[19],-0.657
same,glycan array binding signal (z-score),[20],0.275
same,glycan array binding signal (z-score),[21],0.952
same,glycan array binding signal (z-score),[22],0.818
same,glycan array binding signal (z-score),[23],1.31
same,glycan array binding signal (z-score),[24],-0.769
same,glycan array binding signal (z-score),[25],2.02
same,glycan array binding signal (z-score),[26],-0.583
same,glycan array binding signal (z-score),[27],1.53
same,glycan array binding signal (z-score),[28],1.75
same,glycan array binding signal (z-score),[29],0.651
same,glycan array binding signal (z-score),[30],-0.587
same,glycan array binding signal (z-score),Fuc(a1-3)GlcNAc,-0.813
same,glycan array binding signal (z-score),[31],0.092
same,glycan array binding signal (z-score),[32],-0.727
same,glycan array binding signal (z-score),[33],-0.619
same,glycan array binding signal (z-score),[34],1.04
same,glycan array binding signal (z-score),[35],0.524
same,glycan array binding signal (z-score),[36],-0.811

# 2 neighbouring records out of the list so far, for reference:
binder,measurement,setting,value
B1,glycan array binding signal (z-score),[13],0.203
same,glycan array binding signal (z-score),[14],-0.055
